Reference: PubChem BioAssay AID602196 (INSERM, 2012)
Assay: 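Knock-downs that protect lung cancer cells from cisplatin or sensitise them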. Cells: human A549 lung cancer cells. Knock-down reagent: siRNA pair against human genes. Timing: 48 h transfection before cisplatin; time from cisplatin to read-out not stated. Conditions: cisplatin at a dose killing half of control-siRNA cells; exact dose and duration not given. Measured: 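Cisplatin cell death as a shift from the 50% death seen with control siRNA; siRNAs toxic or growth-blocking alone scored 0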. Scale: two-siRNA summed score (-2 to +2): higher = both siRNAs protect from cisplatin killing; -2 means both sensitise. Rule for the call: 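Each siRNA scores 0 if harmful alone by LDH or WST-1, otherwise +1 if it reduces and -1 if it increases cisplatin killing; a gene is active when both siRNAs agree (sum +2 or -2)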. Calls: active = both siRNAs shift cisplatin killing the same way; inactive = no consistent shift, or siRNA harmful alone.
Here is an unselected part of about 23,000 reagents. In the full data, 455 (2%) were called active. 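Active includes both protection and sensitisation; some change values fall well beyond the stated -50 to +50 range.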 Unmarked entries are inactive. Further read-outs or replicates are left out here. The record does not give: the amount of reagent.

LOC401456: two-siRNA summed score (-2 to +2) = 0
HINT2: two-siRNA summed score (-2 to +2) = 0
OR7G1: two-siRNA summed score (-2 to +2) = 1
CRIPTO: two-siRNA summed score (-2 to +2) = 0
CTU1: two-siRNA summed score (-2 to +2) = 0
PNLIP: two-siRNA summed score (-2 to +2) = 0
CYP4F11: two-siRNA summed score (-2 to +2) = 0
ZNF439: two-siRNA summed score (-2 to +2) = 1
CALB1: two-siRNA summed score (-2 to +2) = 0
GAS7: two-siRNA summed score (-2 to +2) = 0
CDY2A: two-siRNA summed score (-2 to +2) = 0
RELCH: two-siRNA summed score (-2 to +2) = 0
AIRIM: two-siRNA summed score (-2 to +2) = 0

Part of the list above, set out differently:
gene | two-siRNA summed score (-2 to +2)
CTU1 | 0
PNLIP | 0
CYP4F11 | 0
ZNF439 | 1

More reagents follow.
CCDC110: two-siRNA summed score (-2 to +2) = 1
EXD3: two-siRNA summed score (-2 to +2) = -1
RSPH14: two-siRNA summed score (-2 to +2) = 0
LOC440025: two-siRNA summed score (-2 to +2) = 1
TMOD1: two-siRNA summed score (-2 to +2) = 0
LOC402560: two-siRNA summed score (-2 to +2) = 0
KLK10: two-siRNA summed score (-2 to +2) = 0
KLHL23: two-siRNA summed score (-2 to +2) = 0
CFLAR: two-siRNA summed score (-2 to +2) = 0
SLC9A2: two-siRNA summed score (-2 to +2) = 0
LOC388931: two-siRNA summed score (-2 to +2) = 1
KCNV1: two-siRNA summed score (-2 to +2) = 0
LOC400740: two-siRNA summed score (-2 to +2) = 0
PLA2G12B: two-siRNA summed score (-2 to +2) = 0
LOC441546: two-siRNA summed score (-2 to +2) = 0
FMC1: two-siRNA summed score (-2 to +2) = 1
PLEKHJ1: two-siRNA summed score (-2 to +2) = 0
SORBS2: two-siRNA summed score (-2 to +2) = 0
PLA2G1B: two-siRNA summed score (-2 to +2) = -1
CREB3L4: two-siRNA summed score (-2 to +2) = 0
LOC389907: two-siRNA summed score (-2 to +2) = 0
LOC441236: two-siRNA summed score (-2 to +2) = 0
LOC400216: two-siRNA summed score (-2 to +2) = 0
ATP5ME: two-siRNA summed score (-2 to +2) = 0
LOC132706: two-siRNA summed score (-2 to +2) = 0
CCNO: two-siRNA summed score (-2 to +2) = 0
TREX1: two-siRNA summed score (-2 to +2) = 0
